Some of the results follow.
B1: il2ra_site1_2b5i_sap_14_mot_HHH_b2_01684_af2_000000128_0001_1_17_H_._HHH_b1_05605_0001_0000200010_0000001_0_0001_af2pred_dldesign_0_af2pred (protein)
chain: SSSSSSSSDRRALLEEANKAFQAGDVEALEALLERAEAAGWEKVARTIRKAIEALLESSSSSSSS
B2: il2ra_site1_3nfp_sap_19_mot_a5dd4818df477eedd074a4c9ae2630b4_0001_000000020_0001_16_33_H_._69a32af0339682088b0ab7bc0c544914_0001_1_0001_0000700030_0000001_0_000 … (protein)
chain: SSSSDREERVEQLLERAEELYEKGNPREADRLLREALRLASEADDPELRELVERVLREAAGSSSS
B3: il2ra_site1_1z92_sap_16_mot_HHH_b2_02761_000000226_0001_1_18_H_._HHH_b1_02055_af2_0001_0000300048_0000001_0_0001_af2pred_0001_af2pred_1 (protein)
chain: SSSSDLEEFAEEVVERLVHELGLSEHDRKLLERSAELALRAGYSERSIRLALEIAAKQASSSSSS
B4: il2ra_site1_3nfp_normal_mot_HHH_b1_01417_af2_000000204_0001_1_19_H_._HHH_b1_00894_0001_0000400032_0000001_0 (protein)
chain: SSSSSRDEEWTEEAERLAEELGDEELVELLRELLEEAKKKGDQRVARELIKVIAKVQLKYRSSSS
B5: il2ra_site2_3nfp_normal_mot_HHH_b1_04324_000000249_0001_1_20_H_._HHH_b2_01176_0001_0000200009_0000001_0 (protein)
chain: SSSSSEELIRLLRAAVLVLEETLDEEEREELRRVLEELEEEGDPELAHELFQLLQRLQEGSSSSS
B6: il2ra_site1_3nfp_sap_24_mot_HHH_b1_07797_af2_000000242_0001_43_57_H_._HHH_b1_08125_0001_0000700036_0000001_0_0001 (protein)
chain: DEEDQARAIAKLLKRAAGVESVEVEVENNEIEVTFKGNDEAVRRAAEAVKLLAKALGIPVEIETE
B7: il2ra_site2_3nfp_sap_24_mot_66bb1f637706d7249e1dd387c51866da_0001_1_000000188_0001_1_12_H_._HHH_b2_08220_0001_0000200006_0000001_0_0001_af2pred_0001_1_af2pred_s … (protein)
chain: SSSSSDEYHAEALFDFARALAALLGDEETLERVRELLERYREEGDPEYLKEVRRLSEELNSSSSS
B8: il2ra_site2_2erj_normal_mot_2fe55654ba661275baf09010e83dfa6f_0001_1_af2_000000002_0001_33_48_H_._afa99cb2f1b48a14133d328b841439c2_0001_af2_0001_0000300034_00000 … (protein)
chain: TEERREEAEELAGGDPELASLILLALRLLERGVPPEEIEEKLRLFAELLGIPPEKVEEALELAEP
B9: il2ra_site1_2b5i_normal_mot_HHH_b1_02271_000000068_0001_1_16_H_._HHH_b1_00849_af2_0001_0000100001_0000001_0_1_af2pred_dldesign_0_af2pred (protein)
chain: SSSSSSSEIEKLIEEAKRLKEQGKRREALKKLEEAYKLASAADDEEKMDEIEELAKELSSSSSSS
B10: il2ra_site2_3nfp_sap_18_mot_ems_3hM_1278_af2_000000151_0001_43_60_H_._1f11f742b06f082c384b25695c7254fa_0001_0001_0000400037_0000001_0_0001 (protein)
chain: SSSSDEEEEIREEAERLFKEAEEKNDEELFRALVELASAAWRLGDHELFAFISELAHRLQSSSSS
B11: il2ra_site1_3nfp_sap_13_mot_HHH_b2_00770_af2_000000063_0001_1_19_H_._HHH_b1_01043_0001_0000300015_0000001_0_0001 (protein)
chain: DNIEIARILDELIRKVPPEVAELLYRVMHLAVRGDPEEARKVLEEILELVGDPLVKELLELVEKL
B12: il2ra_site1_2b5i_sap_11_mot_HHH_b1_01949_af2_000000041_0001_1_19_H_._HHH_b2_05381_af2_0001_0000300023_0000001_0_0001 (protein)
chain: SSSSDEATKRFHELFRLVARLWAEGNPEEAEKVLEELKELAKELGDPAAHQAVEMLEKQLSSSSS
B13: il2ra_site1_1z92_sap_18_mot_a6fd39a3fea750eb5223871b70f163d0_0001_af2_000000011_0001_17_33_H_._HHH_b2_00897_0001_0000300009_0000001_0_0001_af2pred_0001_af2pred_ … (protein)
chain: SSSSSSEEEEIVEELVEEFGLSERQKRSLKIAAEIAKELGASEEEIRRDLERFAEFLKRRSSSSS
B14: il2ra_site1_1z92_sap_14_mot_HHH_b2_02521_000000078_0001_19_35_H_._HHH_b1_04803_af2_0001_0000100001_0000001_0_0001 (protein)
chain: SSSSDEALRRLAERLVEDFVRLADLSEEDEERLQELAEKLVERGVSAQELARILEELARKLSSSS
B15: il2ra_site2_2erj_sap_20_mot_HHH_b1_06157_000000296_0001_22_38_H_._HHH_b1_05978_0001_0000300009_0000001_0_0001_af2pred_0001_1_af2pred_swapped (protein)
chain: SDELLAALAIRVAAKRAGVPSVSVEVSNGTIEVTVEGNDEAVKILREFAESAAKAAGLEVHVETE
B16: il2ra_site1_3nfp_sap_20_mot_HHH_b2_03678_af2_000000278_0001_41_55_H_._9e027cdb5f26361229cf46a28aff2188_0001_1_0001_0000200026_0000001_0_0001_af2pred_0001_af2pre … (protein)
chain: SSSSEELKRRAFELLQEAIRLFNNGNPEEAEKVLEEAQELAEKAGNPKLAEMIEAAQRVNGSSSS
B17: il2ra_site1_3nfp_sap_14_mot_119b7766384adbe86006a62bce89dba1_0001_af2_000000052_0001_18_32_H_._HHH_b2_03369_0001_0000100001_0000001_0_0001 (protein)
chain: SNDEWFERLVKRVQELAEEKNDEEVRELAEEALELWERALEEQDSEKADEAIRIVARLQNRVQSS
B18: il2ra_site2_2erj_sap_19_mot_HHH_b1_01555_af2_000000123_0001_22_39_H_._HHH_b2_02358_af2_0001_0000400024_0000001_0_0001_af2pred_0001_af2pred (protein)
chain: SSSSDEAEELLEEAKRLLEEGNPEEAEKVLRKAAAIAAKLGDHELFVEISELLELVHELGSSSSS
B19: il2ra_site1_3nfp_normal_mot_eb5a5eebac1e5153f932cc6c3f4b2787_0001_af2_000000100_0001_18_33_H_._HHH_b2_00861_0001_0000300015_0000001_0_af2pred_0001_af2pred_1 (protein)
chain: SSSSSEEEREEVRELLEQARESSDPREADELFREALKIATELGDPELYELVAEVLREVAQSSSSS
B20: il2ra_site1_3nfp_sap_18_mot_HHH_b2_07488_000000163_0001_1_17_H_._HHH_b2_01265_af2_0001_0000100006_0000001_0_0001 (protein)
chain: SALELLEEFLKKWPDKEYLEELLRADERDYGDPERAAEILARLMLEMNPDDEELREVLEEIRELR
B21: il2ra_site1_2b5i_normal_mot_f5ff40796168375b462bec8614a1db4a_0001_1_000000138_0001_53_65_H_._HHH_b2_07546_0001_0000300021_0000001_0_af2pred_dldesign_0_af2pred (protein)
chain: SSSSSAPSREYIRELIEKARKEEDPLLRRKILLLARKAAKKLGDEELIAEVERVEAELEKSSSSS
B22: il2ra_site1_1z92_sap_20_mot_HHH_b2_02540_000000162_0001_1_16_H_._HHH_b1_04044_0001_0000300016_0000001_0_0001 (protein)
chain: SSSSSSAERSARQAVRIAVELAELSEEQKKELEELAEELVEEGLDPLEILKILDELARRLSSSSS
B23: il2ra_site1_3nfp_normal_mot_HHH_b1_05523_000000027_0001_1_19_H_._HHH_b2_06006_0001_0000100001_0000001_0_af2pred_0001_af2pred_swapped (protein)
chain: SSSSSDDQERIEELFREAEELVRNGNPEEARRVLEEAIELAEELGSRVTVRFLRQALRIASSSSS
B24: il2ra_site2_2erj_sap_22_mot_HHH_b1_04373_af2_000000118_0001_18_33_H_._HHH_b2_00782_0001_0000700027_0000001_0_0001 (protein)
chain: SSSSDERWKEIARLILEAWELYKEEKNPEEAKEVLEEAERLARENGDEASLRYVEHALREISSSS

Target: il2ra, P01589
Assay: yeast display titration

Binder	apparent Kd
B1	inactive: no binding seen
B2	inactive: no binding seen
B3	inactive: no binding seen
B4	inactive: no binding seen
B5	inactive: no binding seen
B6	inactive: no binding seen
B7	inactive: no binding seen
B8	inactive: no binding seen
B9	inactive: no binding seen
B10	inactive: no binding seen
B11	inactive: no binding seen
B12	inactive: no binding seen
B13	inactive: no binding seen
B14	inactive: no binding seen
B15	inactive: no binding seen
B16	inactive: no binding seen
B17	inactive: no binding seen
B18	inactive: no binding seen
B19	inactive: no binding seen
B20	inactive: no binding seen
B21	inactive: no binding seen
B22	inactive: no binding seen
B23	inactive: no binding seen
B24	inactive: no binding seen

From article PMC10163288
